Where “and” joins values, the source holds several entries; their conditions need not be identical. Equal values may be shown once. Some of the results follow. This data set is noisy: repeats of one test often differ as much as different tests do.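 HEK293T cells were given each compound shortly before transfection with a reporter in which red mCherry is followed by the SARS-CoV-2 frameshift element and then GFP in the −1 frame, so GFP appears only after frameshifting.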
How the values were obtained:
[1] = system: SARS-CoV-2 -1 PRF reporter mCherry-FSE-GFP(-1); assay: mCherry (red) intensity as percent of control; higher = higher upstream reporter expression; conditions: 10 µM; 24 h; HEK293T
[2] = system: SARS-CoV-2 -1 PRF reporter mCherry-FSE-GFP(-1); assay: percent effect, decrease of GFP/mCherry ratio (-1 PRF reporter) relative to controls; higher = stronger frameshift inhibition; conditions: 10 µM; 24 h; HEK293T

SMILES	mCherry [1]	percent effect [2]
CC(C)(C)C(=O)NCCCC(=O)O [pivagabine]	98.3%	-2.9%
CC(=O)O[C@]1(C(C)=O)CC[C@H]2[C@@H]3C[C@H](C)C4=CC(=O)CC[C@]4(C)[C@H]3CC[C@@]21C [Medroxyprogesterone 17-Acetate]	56.3%	3.26%
CC[C@H](C)[C@H](N)C1=N[C@H](C(=O)N[C@@H](CC(C)C)C(=O)N[C@H](CCC(=O)O)C(=O)N[C@H](C(=O)N[C@H]2CCCCNC(=O)[C@H](CC(N)=O)NC(=O)[C@@H](CC(=O)O)NC(=O)[C@H](Cc3cnc[nH]3)NC(=O)[C@@H](Cc3ccccc3)NC(=O)[C@H]([C@@H](C)CC)NC(=O)[C@@H](CCCN)NC2=O)[C@@H](C)CC)CS1	70.9%	-2.1%
NC(Cc1c[nH]c2ccc(O)cc12)C(=O)O (stereo unspecified)	123%	-7.45%
CC(C)(C)NC[C@H](O)COc1cccc2c1CCCC2=O [levobunolol]	111% and 95.2%	-2.53% and -3.25%
CC1(C)S[C@@H]2[C@H](NC(=O)Cc3ccccc3)C(=O)N2[C@H]1C(=O)O	98.1%	-1.03%
CCCCCC[C@@H](CCC)C(=O)O [arundic acid]	95.3%	-0.686%
CCO[C@@H](Cc1ccc(OCCc2ccc(OS(C)(=O)=O)cc2)cc1)C(=O)O [tesaglitazar]	86.1%	-11.6%
NS(=O)(=O)c1cc2c(cc1Cl)N=C(CSCc1ccccc1)NS2(=O)=O [benzthiazide]	96%	-3.61%
CN(C)CCOC(C)(c1ccccc1)c1ccccn1 (stereo unspecified)	134%	-4.6%
CN1CCN(C2=Nc3cc(Cl)ccc3Nc3ccccc32)CC1 [Clozapine]	70.9%	-2.21%
COc1ccc(C[C@H](N)C(=O)N[C@H]2[C@@H](O)[C@H](n3cnc4c(N(C)C)ncnc43)O[C@@H]2CO)cc1	128%	-11.3%
Cc1ccccc1OCC(O)CNCCOc1ccc(C(N)=O)cc1 (stereo unspecified) [tolamolol]	89.5%	-2.9%
CO[C@H]1/C=C/O[C@@]2(C)Oc3c(C)c(O)c4c(O)c(cc(O)c4c3C2=O)NC(=O)/C(C)=C\C=C\[C@H](C)[C@H](O)[C@@H](C)[C@@H](O)[C@@H](C)[C@H](OC(C)=O)[C@@H]1C [rifamycin]	101%	-1.68%
NC(=O)[C@H]1O[C@@H](O)[C@H](O)[C@@H](O)[C@@H]1O [glucuronamide]	78.8%	-6.02%
Fc1ccc(C(c2ccc(F)cc2)N2CCN(C/C=C/c3ccccc3)CC2)cc1 [flunarizine]	93.3% and 69.4%	-1.82% and -7.29%
NC(=O)c1cnccn1 [pyrazinamide]	90.8%	-2.6%

SMILES	mCherry [1]	percent effect [2]
CN1C2CCCC1CC(NC(=O)c1nn(C)c3ccccc13)C2 (stereo unspecified)	101%	-7.41%
CN(C)CCc1c[nH]c2ccc(C[C@H]3COC(=O)N3)cc12 [zolmitriptan]	103%	-0.298%
CS(=O)(=O)c1ccc([C@@H](O)[C@@H](CO)NC(=O)C(Cl)Cl)cc1 [thiamphenicol]	117%	2.8%
CC(S)C(=O)NCC(=O)O (stereo unspecified) [tiopronin]	99.3%	-2.8%
O=C(NC(Cc1cc(=O)[nH]c2ccccc12)C(=O)O)c1ccc(Cl)cc1 (stereo unspecified) [rebamipide]	105% and 97.9%	-4.32% and -1.54%
CCOc1nc2cccc(C(=O)O)c2n1Cc1ccc(-c2ccccc2-c2nn[nH]n2)cc1	85.3%	-4.13%
CC(C)(Sc1cc(C(C)(C)C)c(O)c(C(C)(C)C)c1)Sc1cc(C(C)(C)C)c(O)c(C(C)(C)C)c1 [probucol]	79.5%	-4.15%
CC1=NS(=O)(=O)c2cc(Cl)ccc2N1	123%	2.04%
CCn1cc(C(=O)O)c(=O)c2cnc(N3CCNCC3)nc21 [pipemidic acid]	107%	-4.13%
O=C(O)c1ccccc1-c1ccc(C(F)(F)F)cc1 [xenalipin]	81.1%	-13.6%
O=C(O)CCCc1ccccc1	104%	-7.26%
C[C@H]1[C@H](NC(=O)/C(=N\OC(C)(C)C(=O)O)c2csc(N)n2)C(=O)N1S(=O)(=O)O [Aztreonam]	67.8%	-4.57%
Oc1ncnc2[nH]ncc12 [Allopurinol]	56.8%	-8.2%
Nc1ccc(S(=O)(=O)Nc2nccs2)cc1 [sulfathiazole]	98.5%	-2.68%
Cc1nc2c([nH]1)-c1ccccc1N(C(=O)c1ccc(NC(=O)c3ccccc3-c3ccccc3)cc1)CC2 [conivaptan]	121%	-4.96%
C[C@H](Cn1cnc2c(N)ncnc21)OCP(=O)(O)O [tenofovir]	103%	-10.5%

Random excerpt: two records from the list
SMILES	mCherry [1]	percent effect [2]
CO[C@H]1/C=C/O[C@@]2(C)Oc3c(C)c(O)c4c(O)c(cc(O)c4c3C2=O)NC(=O)/C(C)=C\C=C\[C@H](C)[C@H](O)[C@@H](C)[C@@H](O)[C@@H](C)[C@H](OC(C)=O)[C@@H]1C [rifamycin]	101%	-1.68%
CC[C@H](C)[C@H](N)C1=N[C@H](C(=O)N[C@@H](CC(C)C)C(=O)N[C@H](CCC(=O)O)C(=O)N[C@H](C(=O)N[C@H]2CCCCNC(=O)[C@H](CC(N)=O)NC(=O)[C@@H](CC(=O)O)NC(=O)[C@H](Cc3cnc[nH]3)NC(=O)[C@@H](Cc3ccccc3)NC(=O)[C@H]([C@@H](C)CC)NC(=O)[C@@H](CCCN)NC2=O)[C@@H](C)CC)CS1	70.9%	-2.1%

Source: the supplement of paper PMC8256030
